PubChem BioAssay AID1508597 | Cure First, 2020

- Screen: 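Genes whose silencing sensitises or protects ovarian cancer cells against rucaparib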 (primary screen)
- Cell system: human ovarian carcinoma lines grown from tumours: OCI-P5x (papillary serous) and OCI-C5x (clear cell)
- Reagents: siRNA pool against human genes, 1.25 pmol siRNA per well
- Timing: 72 h or 96 h, depending on the cell culture
- Treatment: rucaparib 20 µM (about IC30) or vehicle, present until read-out
- Rucaparib or vehicle: Rucaparib
- Cell line: OCI-P5x (serous)
- Detection: 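ATP luminescence measured at 72 or 96 h according to the culture, then normalised and expressed as percent viability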
- Scale: viability, normalised: higher = more viable cells remaining
- Rule for the call: 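a well counts as a hit if its normalised viability is under 80 percent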
- Meaning of the calls: active = viability under 80%; inactive = viability 80% or more
Shown is an unselected part of the about 2,100 reagents, in one setting of the screen. 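Calls flag viability under 80% in either arm, not effects specific to rucaparib; the reference for percent is not stated.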 Reagent sequences are not shown. The record does not give: the 100% reference.

gene	technical replicate	viability, normalised (%)	activity call
CDYL2	1	99.1	inactive
CDYL2	2	95.4	inactive
CDYL2	3	77.2	active
SYK	1	68.9	active
SYK	2	75.5	active
SYK	3	84	inactive
CYLD	1	67.7	active
CYLD	2	86.2	inactive
CYLD	3	66.9	active
EPHB1	1	100	inactive
EPHB1	2	105	inactive
EPHB1	3	103	inactive
ETNK1	1	80.7	inactive
ETNK1	2	72.9	active
ETNK1	3	74.2	active
TSSK1A	1	120	inactive
TSSK1A	2	111	inactive
TSSK1A	3	112	inactive
KDM6B	1	58.8	active
KDM6B	2	56.4	active
KDM6B	3	53.2	active
KDM5C	1	37.1	active
KDM5C	2	36.8	active
KDM5C	3	44.9	active
LEF1	1	56.4	active
LEF1	2	55.8	active
LEF1	3	43.5	active
RIF1	1	70.8	active
RIF1	2	83.9	inactive
RIF1	3	90.7	inactive
RASA3	1	66.9	active
RASA3	2	68.8	active
RASA3	3	73.8	active
FAN1	1	86.6	inactive
FAN1	2	85.3	inactive
FAN1	3	66.4	active
XRCC1	1	74	active
XRCC1	2	79.2	active
XRCC1	3	76.5	active
GRB10	1	85	inactive
GRB10	2	49.9	active
GRB10	3	89.6	inactive
NEK1	1	83.4	inactive
NEK1	2	79.7	active
NEK1	3	61.9	active
NDC80	1	57.5	active
NDC80	2	73.2	active
NDC80	3	58.1	active
CASK	1	92	inactive
CASK	2	98.4	inactive
CASK	3	79.7	active
HK2	1	67.5	active
HK2	2	53.5	active
HK2	3	58.6	active
ZFP42	1	53.2	active
ZFP42	2	59.8	active
ZFP42	3	29.5	active
TDRD10	1	60.7	active
TDRD10	2	77	active
TDRD10	3	59.1	active
ING5	1	45	active
ING5	2	56.4	active
ING5	3	68.2	active
SBK1	1	108	inactive
SBK1	2	114	inactive
SBK1	3	123	inactive
NCOR1	1	22.6	active
NCOR1	2	34.3	active
NCOR1	3	37.3	active
TSSK4	1	74.1	active
TSSK4	2	83.5	inactive
TSSK4	3	95.7	inactive
DPF1	1	76	active
DPF1	2	78.6	active
DPF1	3	62.9	active

4 entries from above, ordered by “viability, normalised (%)”, ascending.
gene	technical replicate	viability, normalised (%)	activity call
CYLD	3	66.9	active
CYLD	1	67.7	active
CYLD	2	86.2	inactive
EPHB1	1	100	inactive
